{"source": "patent US8921515B2", "about": "“Methods and compositions of preparation for proteome analysis” (Case Western Reserve University, priority 2011, dated 2014)", "key": {"[1]": {"assay": "PFOA amount in SCX, HILIC, FSPE and ANX chromatography fractions by flow injection analysis"}, "[2]": {"assay": "Removal of PFOA from digests by evaporation, residual PFOA by flow injection MS"}}, "data": [{"compound": "O=C(O)C(F)(F)C(F)(F)C(F)(F)C(F)(F)C(F)(F)C(F)(F)C(F)(F)F", "note": "[PFOA, perfluorooctanoic acid]", "values": [{"measurement": "estimated PFOA amount", "setting": "[1]; ANX, flow through (peak m), 200 μg PFOA loaded", "value": 141.2, "unit": "µg"}, {"measurement": "share of the PFOA loaded on the column found in the fraction", "setting": "[1]; ANX, flow-through fraction", "value": 70, "unit": "%"}, {"measurement": "estimated PFOA amount", "setting": "[1]; ANX, washing 1 (peak n)", "value": "below detection limit"}, {"measurement": "estimated PFOA amount", "setting": "[1]; ANX, washing 2 (peak o)", "value": "below detection limit"}, {"measurement": "estimated PFOA amount", "setting": "[1]; FSPE, 70% methanol washing fraction (peak j)", "value": 81.8, "unit": "µg"}, {"measurement": "estimated PFOA amount", "setting": "[1]; FSPE, 80% methanol washing fraction (peak k)", "value": 22.9, "unit": "µg"}, {"measurement": "estimated PFOA amount", "setting": "[1]; FSPE, 100% methanol washing fraction (peak l)", "value": 2.3, "unit": "µg"}, {"measurement": "estimated PFOA amount", "setting": "[1]; FSPE, flow through (peak i)", "value": "trace amount"}, {"measurement": "share of the total PFOA loaded onto the column that was eluted", "setting": "[1]; FSPE, washing fraction 1, 70% methanol", "value": "over 40%"}, {"measurement": "estimated PFOA amount", "setting": "[1]; HILIC, flow through (peak e), 200 μg PFOA loaded", "value": 181.7, "unit": "µg"}, {"measurement": "estimated PFOA amount", "setting": "[1]; HILIC, low-organic elution fraction (peak h)", "value": "below detection limit"}, {"measurement": "estimated PFOA amount", "setting": "[1]; HILIC, washing 1 (peak f)", "value": "trace amount"}, {"measurement": "estimated PFOA amount", "setting": "[1]; HILIC, washing 2 (peak g)", "value": "below detection limit"}, {"measurement": "estimated PFOA amount", "setting": "[1]; SCX, flow through (peak a), 200 μg PFOA loaded", "value": 211.1, "unit": "µg"}, {"measurement": "estimated PFOA amount", "setting": "[1]; SCX, high-salt elution fraction (peak d)", "value": "trace amount"}, {"measurement": "estimated PFOA amount", "setting": "[1]; SCX, washing 1 (peak b)", "value": "below detection limit"}, {"measurement": "estimated PFOA amount", "setting": "[1]; SCX, washing 2 (peak c)", "value": "below detection limit"}, {"measurement": "PFOA amount in the BSA digest", "setting": "[2]; BSA digest, three cycles ethanol:ethylacetate:water:TFA, evaporation at 60° C., 760 Torr", "value": "below detectable level"}, {"measurement": "residual PFOA", "setting": "[2]; OS digest, another three cycles, evaporation at 60° C., 760 Torr (Sample 1)", "value": "not detectable"}, {"measurement": "residual PFOA as % of the initial amount", "setting": "[2]; OS digest, three cycles under low pressure (Sample 2)", "value": 1.2, "unit": "%"}, {"measurement": "residual PFOA", "setting": "[2]; OS membrane protein digest, 1 mg PFOA initially, three cycles reconstitution/evaporation under low pressure (Sample 2)", "value": 12, "unit": "µg"}]}]}
